In article PMC5683655:
No constants are given. Whether binding was seen depends on the method and setting. In cells and extracts the contact can be indirect. A result given as binding can be weak or reduced; the word gives no strength.

By UniProt entry, the sequences of proteins in these tests, tags left out. Where a name states a change or a piece, a line headed by the entry shows the natural chain unless it says otherwise.
UniProt G5EF11: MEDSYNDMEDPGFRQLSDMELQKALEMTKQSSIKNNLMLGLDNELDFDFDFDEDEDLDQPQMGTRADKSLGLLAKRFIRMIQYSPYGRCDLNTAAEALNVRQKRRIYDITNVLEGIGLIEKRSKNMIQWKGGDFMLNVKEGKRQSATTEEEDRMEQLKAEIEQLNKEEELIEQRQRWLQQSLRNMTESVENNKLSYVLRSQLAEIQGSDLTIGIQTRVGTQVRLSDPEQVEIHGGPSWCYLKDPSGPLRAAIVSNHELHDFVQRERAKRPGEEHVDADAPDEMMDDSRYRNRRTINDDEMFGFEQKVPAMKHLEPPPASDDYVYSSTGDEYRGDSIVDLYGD

What was measured:
[1] = target: EFL-1 (C. elegans (endogenous in late embryos)) (UniProt G5EF11); assay: co-IP; lin-35(n745) null (LIN-35 protein null) late embryo extracts; anti-EFL-1 or anti-LIN-37 antibody crosslinked to Protein A Dynabeads; 5 mg lysate, 2 hours at 4°C; lysis buffer 25 mM HEPES pH 7.6, 150 mM NaCl, 0.1% Nonidet P-40; western blot
[2] = target: EFL-1 (C. elegans (endogenous in late embryos)) (UniProt G5EF11); assay: co-IP; wild-type (N2) late embryo extracts; anti-EFL-1 or anti-LIN-37 antibody crosslinked to Protein A Dynabeads; 5 mg lysate, 2 hours at 4°C; lysis buffer 25 mM HEPES pH 7.6, 150 mM NaCl, 0.1% Nonidet P-40; western blot

B1: DPL-1 (protein, UniProt Q22703 1-598)
chain: MNPTNYDPRIGQPAQSRPQVSLSMGRRIVQMPTGLPRSYQDESHNEPVGWDEPSGVGGSSGAGGQQSDKPTGLRHFSTKVCEKVKEKGLTNYNEVADELVADYFQNNLIKQIDVVKQEYDMKNIRRRVYDALNVLLAMNIITKSKKDIRWIGLPASASQEISRLEEEKSRREASISSKKQALEEMVLQIVSYKNLVERNRKNEHKNGRPENDTVLHLPFLIINTDKEANVECSVSSDKSEFLFSFDKKFEIHDDFEILKKLNLACSLETTNPTAEEVKTAKSFLPTLHQHYVDEIIANRKKVEAEKEEKRKQQQLIADQMSMNLSQAQYVEPTSSLAQMSYSSRFNRQLQEHLINDGSEDRSAAAGIMERDYDMDKNVNQGSASRGPMYNTYSPQKIRAQVNTPLQVPPVTKRYYVQKTQGPMKHDMTPVVRTVNRPYSTVPPDRRLSTGATSVNSGPVKYYVPQGHQPMHQPVGQRYRVRPQQPQMSHMGQPHQVQQRVVYPAGSISGHQLQPGQRIVTQRIVAPGGPHPPGTIVRKVIRKIVVNNPKQSPAQQVIQKKMMEQDMCTFERKTEQPMTSAQAAALIQHPQPEEYDYFQ
B1 was tested. Which binding [1] did it give?
The binding was “binds”.

And the binding [2]?
Its binding is “binds”.
